The supplement of paper PMC6411743
± gives the standard deviation of the averaged measurements. Some of the results follow.

Chains of the proteins cited; added tags and fusions are not shown. Lines headed by an entry give the natural chain unless they say otherwise; changes in a name come on top.
UniProt Q6GTX8: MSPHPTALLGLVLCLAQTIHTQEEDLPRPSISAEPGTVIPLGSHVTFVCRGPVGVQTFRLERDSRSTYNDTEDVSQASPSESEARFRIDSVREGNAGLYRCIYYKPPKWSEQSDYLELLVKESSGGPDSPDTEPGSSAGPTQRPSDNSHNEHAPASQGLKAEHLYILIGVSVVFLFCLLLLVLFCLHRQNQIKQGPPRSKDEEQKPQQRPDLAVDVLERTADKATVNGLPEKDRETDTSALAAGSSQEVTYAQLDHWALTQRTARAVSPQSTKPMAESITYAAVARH
UniProt A5PLN9: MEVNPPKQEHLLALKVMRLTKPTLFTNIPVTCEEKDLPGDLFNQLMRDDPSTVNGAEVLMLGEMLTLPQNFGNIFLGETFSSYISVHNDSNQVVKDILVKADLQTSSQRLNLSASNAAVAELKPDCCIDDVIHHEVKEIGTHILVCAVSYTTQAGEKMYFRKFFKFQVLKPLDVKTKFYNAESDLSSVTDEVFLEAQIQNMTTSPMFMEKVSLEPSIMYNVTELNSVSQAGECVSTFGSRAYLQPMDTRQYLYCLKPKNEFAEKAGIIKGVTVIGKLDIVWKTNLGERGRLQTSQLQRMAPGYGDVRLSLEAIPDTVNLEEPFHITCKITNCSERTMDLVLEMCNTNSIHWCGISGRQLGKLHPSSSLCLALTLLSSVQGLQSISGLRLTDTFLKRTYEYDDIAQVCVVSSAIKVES
UniProt Q9P1Y6: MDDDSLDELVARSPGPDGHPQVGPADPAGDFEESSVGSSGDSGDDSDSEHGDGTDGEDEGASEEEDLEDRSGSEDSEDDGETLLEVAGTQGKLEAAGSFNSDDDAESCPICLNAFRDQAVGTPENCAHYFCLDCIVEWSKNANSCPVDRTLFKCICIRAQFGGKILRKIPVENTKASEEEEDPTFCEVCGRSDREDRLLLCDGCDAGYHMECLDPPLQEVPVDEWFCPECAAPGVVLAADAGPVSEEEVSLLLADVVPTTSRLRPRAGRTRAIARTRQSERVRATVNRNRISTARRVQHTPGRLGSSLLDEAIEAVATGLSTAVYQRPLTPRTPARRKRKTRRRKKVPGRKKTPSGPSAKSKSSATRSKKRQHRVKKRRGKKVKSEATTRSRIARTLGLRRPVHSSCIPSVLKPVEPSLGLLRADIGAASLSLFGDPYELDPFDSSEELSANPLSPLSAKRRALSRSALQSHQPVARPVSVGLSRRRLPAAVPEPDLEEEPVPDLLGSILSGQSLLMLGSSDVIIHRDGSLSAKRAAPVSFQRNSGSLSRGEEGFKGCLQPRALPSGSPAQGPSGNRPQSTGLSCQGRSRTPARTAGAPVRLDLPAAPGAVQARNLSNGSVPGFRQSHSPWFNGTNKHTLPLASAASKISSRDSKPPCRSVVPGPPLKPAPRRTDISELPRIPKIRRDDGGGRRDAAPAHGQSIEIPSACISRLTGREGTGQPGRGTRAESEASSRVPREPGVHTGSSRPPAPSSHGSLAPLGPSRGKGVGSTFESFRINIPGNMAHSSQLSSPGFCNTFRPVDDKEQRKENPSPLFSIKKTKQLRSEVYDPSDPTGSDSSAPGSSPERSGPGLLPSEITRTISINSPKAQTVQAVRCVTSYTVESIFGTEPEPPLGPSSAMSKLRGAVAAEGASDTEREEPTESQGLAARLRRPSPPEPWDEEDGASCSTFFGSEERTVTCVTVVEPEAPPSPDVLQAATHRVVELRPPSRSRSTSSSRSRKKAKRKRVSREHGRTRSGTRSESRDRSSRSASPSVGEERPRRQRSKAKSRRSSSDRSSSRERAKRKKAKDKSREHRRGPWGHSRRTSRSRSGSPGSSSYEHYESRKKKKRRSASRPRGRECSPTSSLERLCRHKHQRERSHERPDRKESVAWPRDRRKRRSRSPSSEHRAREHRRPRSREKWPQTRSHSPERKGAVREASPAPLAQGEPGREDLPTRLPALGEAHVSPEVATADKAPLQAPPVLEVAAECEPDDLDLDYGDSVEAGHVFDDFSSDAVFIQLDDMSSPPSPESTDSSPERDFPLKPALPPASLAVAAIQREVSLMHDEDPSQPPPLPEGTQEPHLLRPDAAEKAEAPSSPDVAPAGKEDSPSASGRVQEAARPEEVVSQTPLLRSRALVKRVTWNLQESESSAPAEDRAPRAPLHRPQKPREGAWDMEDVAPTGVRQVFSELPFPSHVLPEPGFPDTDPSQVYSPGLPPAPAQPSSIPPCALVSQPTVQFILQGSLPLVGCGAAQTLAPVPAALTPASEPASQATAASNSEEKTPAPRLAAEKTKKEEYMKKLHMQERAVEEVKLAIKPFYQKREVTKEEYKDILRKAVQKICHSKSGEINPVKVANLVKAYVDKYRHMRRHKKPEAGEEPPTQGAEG
UniProt O95299, whole entry: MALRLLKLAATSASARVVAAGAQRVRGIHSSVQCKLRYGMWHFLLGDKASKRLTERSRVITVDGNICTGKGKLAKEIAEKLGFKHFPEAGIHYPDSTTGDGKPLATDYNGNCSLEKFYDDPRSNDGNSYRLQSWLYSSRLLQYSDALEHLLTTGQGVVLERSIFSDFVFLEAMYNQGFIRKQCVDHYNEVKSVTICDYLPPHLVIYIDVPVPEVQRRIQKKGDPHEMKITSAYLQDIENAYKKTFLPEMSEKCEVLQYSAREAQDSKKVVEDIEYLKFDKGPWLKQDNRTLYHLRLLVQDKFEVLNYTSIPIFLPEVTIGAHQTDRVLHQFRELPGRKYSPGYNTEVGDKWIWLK
UniProt O60610, whole entry: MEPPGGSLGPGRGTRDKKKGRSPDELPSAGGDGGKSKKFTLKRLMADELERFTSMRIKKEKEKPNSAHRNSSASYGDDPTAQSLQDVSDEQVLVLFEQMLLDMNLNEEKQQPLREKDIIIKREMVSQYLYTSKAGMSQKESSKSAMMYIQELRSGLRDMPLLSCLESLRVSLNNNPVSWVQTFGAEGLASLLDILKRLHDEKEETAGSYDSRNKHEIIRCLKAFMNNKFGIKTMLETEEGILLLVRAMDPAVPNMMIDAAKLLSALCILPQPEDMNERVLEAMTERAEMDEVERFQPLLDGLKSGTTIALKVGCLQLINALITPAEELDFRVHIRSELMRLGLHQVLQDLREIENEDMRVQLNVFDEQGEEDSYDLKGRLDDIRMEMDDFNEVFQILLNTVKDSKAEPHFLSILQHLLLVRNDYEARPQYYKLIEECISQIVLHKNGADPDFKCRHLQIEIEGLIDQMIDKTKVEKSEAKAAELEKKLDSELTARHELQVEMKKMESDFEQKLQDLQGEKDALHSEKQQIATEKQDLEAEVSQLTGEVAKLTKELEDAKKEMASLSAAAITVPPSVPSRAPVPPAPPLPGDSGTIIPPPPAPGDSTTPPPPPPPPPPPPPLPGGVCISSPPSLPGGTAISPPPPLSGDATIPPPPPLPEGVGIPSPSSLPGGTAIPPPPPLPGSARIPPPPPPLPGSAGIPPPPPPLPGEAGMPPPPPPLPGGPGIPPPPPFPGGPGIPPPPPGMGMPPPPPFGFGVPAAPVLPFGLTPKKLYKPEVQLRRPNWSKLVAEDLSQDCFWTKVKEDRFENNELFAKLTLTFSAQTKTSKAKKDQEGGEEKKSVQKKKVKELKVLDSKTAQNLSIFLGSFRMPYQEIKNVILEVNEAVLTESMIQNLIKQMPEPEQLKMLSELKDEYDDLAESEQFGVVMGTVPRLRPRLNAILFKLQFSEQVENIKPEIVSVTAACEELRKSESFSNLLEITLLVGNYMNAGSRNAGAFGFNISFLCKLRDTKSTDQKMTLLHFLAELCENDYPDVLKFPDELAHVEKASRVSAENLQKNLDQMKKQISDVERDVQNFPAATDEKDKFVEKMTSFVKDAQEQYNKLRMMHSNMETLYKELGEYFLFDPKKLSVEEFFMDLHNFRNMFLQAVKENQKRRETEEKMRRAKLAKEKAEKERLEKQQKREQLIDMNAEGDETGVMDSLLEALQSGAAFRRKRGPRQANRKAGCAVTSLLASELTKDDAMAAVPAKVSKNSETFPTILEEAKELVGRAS

Compound: Nc1nc2c(ncn2[C@@H]2O[C@H](COP(=O)(O)OP(=O)(O)OP(=O)(O)O)[C@@H](O)[C@H]2O)c(=O)[nH]1 [guanosine triphosphate]
Test: NP40-soluble protein abundance relative to vehicle (solubility fold change) (ratio); higher = more soluble protein in presence of GTP
Description: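 Solubility proteome profiling in Jurkat crude lysate. Lysate was treated with Mg-GTP (0.1-10 mM) for 10 min at room temperature and 3 min at 37 °C, then solubilised with 0.8% NP40 and benzonase, followed by ultracentrifugation. Proteins were quantified by TMT10 LC-MS/MS; the value is the NP40-soluble abundance relative to the NP40-processed vehicle, from 3 independent experiments.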

Target	NP40-soluble protein abundance (concentration: 0.1mM)	NP40-soluble protein abundance (concentration: 0.5mM)	NP40-soluble protein abundance (concentration: 1mM)	NP40-soluble protein abundance (concentration: 2mM)	NP40-soluble protein abundance (concentration: 4mM)	NP40-soluble protein abundance (concentration: 6mM)	NP40-soluble protein abundance (concentration: 8mM)	NP40-soluble protein abundance (concentration: 10mM)
A0A0G2JLV7|A0A0G2JMI0|A0A0G2JNK8|A0A0G2JNU6|A0A0G2JP18|A0A0G2JQ50|A0A140T8W3|A8MZ84 and related entries (UniProt Q6GTX8)	0.867 ± 0.023	0.858 ± 0.035	0.95 ± 0.056	0.942 ± 0.11	0.9 ± 0.084	0.935 ± 0.068	0.889 ± 0.051	0.979 ± 0.097
UniProt A5PLN9 and related entries	1.02 ± 0.078	1.04 ± 0.052	0.99 ± 0.041	0.954 ± 0.05	0.969 ± 0.073	0.951 ± 0.041	0.965 ± 0.014	0.904 ± 0.014
A0A0J9YWD5|A0A0J9YYB5|B7ZM65 and related entries (UniProt Q9P1Y6)	0.941 ± 0.075	0.94 ± 0.049	0.981 ± 0.045	1.02 ± 0.08	1.23 ± 0.14	1.15 ± 0.15	1.27 ± 0.22	1.25 ± 0.21
A0A087WXC5|E7ESZ7 and related entries (UniProt O95299)	0.999 ± 0.069	1.06 ± 0.09	1.03 ± 0.064	1.04 ± 0.097	1.01 ± 0.069	1.05 ± 0.083	1.01 ± 0.056	0.988 ± 0.053
A0A0G2JH68 (UniProt O60610)	0.964 ± 0.043	0.974 ± 0.04	0.997 ± 0.05	0.955 ± 0.067	0.951 ± 0.064	0.969 ± 0.059	0.977 ± 0.029	0.963 ± 0.04
